± gives the standard deviation of the averaged measurements. Some of the results follow.
Compound: Nc1nc2c(ncn2[C@@H]2O[C@H](COP(=O)(O)OP(=O)(O)OP(=O)(O)O)[C@@H](O)[C@H]2O)c(=O)[nH]1 [guanosine triphosphate]
Assay: NP40-soluble protein abundance relative to vehicle (solubility fold change) (ratio); higher = more soluble protein in presence of GTP
Procedure, shortened: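 In three independent experiments, Jurkat crude lysate made by Dounce homogenisation was treated for 10 min at room temperature and then 3 min at 37 °C with eight concentrations ranging from 0.1 to 10 mM. It was then solubilised with 0.8% NP40 plus benzonase for 60 min at 4 °C and ultracentrifuged. The supernatant was TMT-labelled for LC-MS/MS, and each value is the fold change against the detergent-processed vehicle for the same replicate, using vsn-normalised intensities.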

Chains of the proteins cited; added tags and fusions are not shown. Lines headed by an entry give the natural chain unless they say otherwise; changes in a name come on top.
UniProt P78317: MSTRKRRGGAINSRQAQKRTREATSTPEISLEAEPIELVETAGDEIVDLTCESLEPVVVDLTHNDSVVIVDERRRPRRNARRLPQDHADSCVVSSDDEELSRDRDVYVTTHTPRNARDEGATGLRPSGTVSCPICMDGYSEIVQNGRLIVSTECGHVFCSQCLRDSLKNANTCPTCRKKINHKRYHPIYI
UniProt Q9P0W2: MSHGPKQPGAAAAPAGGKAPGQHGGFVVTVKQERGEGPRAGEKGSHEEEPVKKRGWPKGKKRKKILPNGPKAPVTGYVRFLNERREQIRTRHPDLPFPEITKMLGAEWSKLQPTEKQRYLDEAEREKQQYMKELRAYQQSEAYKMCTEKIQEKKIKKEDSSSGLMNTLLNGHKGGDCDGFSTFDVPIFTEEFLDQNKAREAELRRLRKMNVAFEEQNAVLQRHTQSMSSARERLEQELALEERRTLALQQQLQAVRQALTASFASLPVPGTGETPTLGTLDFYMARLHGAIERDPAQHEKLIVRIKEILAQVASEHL
UniProt Q96IZ7: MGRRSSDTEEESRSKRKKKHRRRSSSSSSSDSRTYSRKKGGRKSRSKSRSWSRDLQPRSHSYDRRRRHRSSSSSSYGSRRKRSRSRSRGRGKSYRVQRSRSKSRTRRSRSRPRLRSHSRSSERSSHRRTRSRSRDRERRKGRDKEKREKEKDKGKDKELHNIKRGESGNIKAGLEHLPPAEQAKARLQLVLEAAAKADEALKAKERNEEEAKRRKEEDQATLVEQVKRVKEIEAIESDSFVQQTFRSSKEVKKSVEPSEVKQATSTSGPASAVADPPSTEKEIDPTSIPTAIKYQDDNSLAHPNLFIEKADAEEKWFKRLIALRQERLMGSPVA
UniProt Q96GQ7: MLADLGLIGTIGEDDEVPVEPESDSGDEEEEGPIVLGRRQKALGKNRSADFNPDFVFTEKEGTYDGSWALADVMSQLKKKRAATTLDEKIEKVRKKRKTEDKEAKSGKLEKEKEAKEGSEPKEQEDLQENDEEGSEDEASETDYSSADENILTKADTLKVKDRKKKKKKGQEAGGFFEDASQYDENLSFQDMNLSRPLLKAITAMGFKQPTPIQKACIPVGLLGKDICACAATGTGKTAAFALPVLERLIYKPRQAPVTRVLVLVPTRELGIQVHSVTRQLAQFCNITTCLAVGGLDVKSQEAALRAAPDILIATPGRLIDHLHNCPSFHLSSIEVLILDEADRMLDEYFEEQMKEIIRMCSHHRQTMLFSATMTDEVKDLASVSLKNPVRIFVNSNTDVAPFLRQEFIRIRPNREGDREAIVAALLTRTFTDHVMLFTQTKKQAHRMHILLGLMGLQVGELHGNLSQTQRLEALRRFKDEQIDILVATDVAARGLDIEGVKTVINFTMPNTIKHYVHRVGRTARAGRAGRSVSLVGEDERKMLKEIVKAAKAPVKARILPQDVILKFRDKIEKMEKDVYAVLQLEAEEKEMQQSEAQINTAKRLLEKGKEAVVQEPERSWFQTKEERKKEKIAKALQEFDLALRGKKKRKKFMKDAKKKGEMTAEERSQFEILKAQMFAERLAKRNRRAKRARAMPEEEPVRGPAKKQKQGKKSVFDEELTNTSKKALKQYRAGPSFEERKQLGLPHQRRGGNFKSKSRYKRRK
UniProt P13010: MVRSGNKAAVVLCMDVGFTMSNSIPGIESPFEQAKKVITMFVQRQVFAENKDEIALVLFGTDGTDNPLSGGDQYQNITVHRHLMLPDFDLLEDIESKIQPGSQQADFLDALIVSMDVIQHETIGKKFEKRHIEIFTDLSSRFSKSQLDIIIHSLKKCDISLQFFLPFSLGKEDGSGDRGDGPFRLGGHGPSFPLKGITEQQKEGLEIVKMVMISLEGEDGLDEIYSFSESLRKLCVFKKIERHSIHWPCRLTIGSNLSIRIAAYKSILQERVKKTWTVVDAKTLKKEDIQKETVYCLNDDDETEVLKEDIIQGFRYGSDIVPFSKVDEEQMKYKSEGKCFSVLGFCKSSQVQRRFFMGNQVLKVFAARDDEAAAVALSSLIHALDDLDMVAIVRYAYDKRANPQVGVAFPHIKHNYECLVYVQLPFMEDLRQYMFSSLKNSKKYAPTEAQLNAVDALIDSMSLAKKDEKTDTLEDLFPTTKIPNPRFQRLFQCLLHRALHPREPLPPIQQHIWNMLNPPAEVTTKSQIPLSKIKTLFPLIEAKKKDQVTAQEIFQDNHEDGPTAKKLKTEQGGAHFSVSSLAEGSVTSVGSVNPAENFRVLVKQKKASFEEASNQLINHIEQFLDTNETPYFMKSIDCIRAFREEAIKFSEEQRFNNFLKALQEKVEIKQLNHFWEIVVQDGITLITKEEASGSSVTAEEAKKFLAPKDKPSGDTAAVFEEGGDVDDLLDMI
UniProt Q13098: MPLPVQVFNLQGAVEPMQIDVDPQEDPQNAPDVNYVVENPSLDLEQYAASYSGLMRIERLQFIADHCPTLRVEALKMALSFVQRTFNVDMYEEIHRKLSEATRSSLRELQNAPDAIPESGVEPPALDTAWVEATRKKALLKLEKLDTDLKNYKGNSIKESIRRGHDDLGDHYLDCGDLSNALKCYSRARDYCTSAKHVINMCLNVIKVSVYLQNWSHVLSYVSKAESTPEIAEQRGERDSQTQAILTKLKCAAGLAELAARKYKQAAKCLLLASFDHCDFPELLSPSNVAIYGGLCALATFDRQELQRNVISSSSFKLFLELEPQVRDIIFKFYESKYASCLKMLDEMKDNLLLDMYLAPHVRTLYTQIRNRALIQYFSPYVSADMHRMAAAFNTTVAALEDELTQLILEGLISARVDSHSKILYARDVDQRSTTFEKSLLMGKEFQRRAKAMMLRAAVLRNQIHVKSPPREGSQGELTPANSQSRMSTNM
UniProt O00560: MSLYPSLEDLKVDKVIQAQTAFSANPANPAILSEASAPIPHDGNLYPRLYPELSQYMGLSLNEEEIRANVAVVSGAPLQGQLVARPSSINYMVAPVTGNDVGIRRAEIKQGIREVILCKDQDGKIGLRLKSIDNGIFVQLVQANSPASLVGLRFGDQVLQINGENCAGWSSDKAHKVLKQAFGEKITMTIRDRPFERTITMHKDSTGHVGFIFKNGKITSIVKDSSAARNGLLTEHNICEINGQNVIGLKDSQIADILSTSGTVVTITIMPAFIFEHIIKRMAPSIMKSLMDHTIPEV
UniProt Q92520: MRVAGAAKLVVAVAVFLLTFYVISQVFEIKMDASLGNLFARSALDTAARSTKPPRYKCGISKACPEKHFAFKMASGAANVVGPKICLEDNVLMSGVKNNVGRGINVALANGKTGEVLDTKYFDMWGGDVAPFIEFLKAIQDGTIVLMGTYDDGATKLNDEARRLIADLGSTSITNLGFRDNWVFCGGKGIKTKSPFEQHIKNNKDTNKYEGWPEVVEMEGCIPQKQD
UniProt P61086: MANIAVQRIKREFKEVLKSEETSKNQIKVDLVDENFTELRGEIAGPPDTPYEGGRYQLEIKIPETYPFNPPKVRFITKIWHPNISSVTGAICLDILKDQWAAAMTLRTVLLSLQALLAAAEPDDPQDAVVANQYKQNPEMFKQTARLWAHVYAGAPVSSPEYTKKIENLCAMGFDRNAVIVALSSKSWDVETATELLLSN
UniProt Q8IXT5: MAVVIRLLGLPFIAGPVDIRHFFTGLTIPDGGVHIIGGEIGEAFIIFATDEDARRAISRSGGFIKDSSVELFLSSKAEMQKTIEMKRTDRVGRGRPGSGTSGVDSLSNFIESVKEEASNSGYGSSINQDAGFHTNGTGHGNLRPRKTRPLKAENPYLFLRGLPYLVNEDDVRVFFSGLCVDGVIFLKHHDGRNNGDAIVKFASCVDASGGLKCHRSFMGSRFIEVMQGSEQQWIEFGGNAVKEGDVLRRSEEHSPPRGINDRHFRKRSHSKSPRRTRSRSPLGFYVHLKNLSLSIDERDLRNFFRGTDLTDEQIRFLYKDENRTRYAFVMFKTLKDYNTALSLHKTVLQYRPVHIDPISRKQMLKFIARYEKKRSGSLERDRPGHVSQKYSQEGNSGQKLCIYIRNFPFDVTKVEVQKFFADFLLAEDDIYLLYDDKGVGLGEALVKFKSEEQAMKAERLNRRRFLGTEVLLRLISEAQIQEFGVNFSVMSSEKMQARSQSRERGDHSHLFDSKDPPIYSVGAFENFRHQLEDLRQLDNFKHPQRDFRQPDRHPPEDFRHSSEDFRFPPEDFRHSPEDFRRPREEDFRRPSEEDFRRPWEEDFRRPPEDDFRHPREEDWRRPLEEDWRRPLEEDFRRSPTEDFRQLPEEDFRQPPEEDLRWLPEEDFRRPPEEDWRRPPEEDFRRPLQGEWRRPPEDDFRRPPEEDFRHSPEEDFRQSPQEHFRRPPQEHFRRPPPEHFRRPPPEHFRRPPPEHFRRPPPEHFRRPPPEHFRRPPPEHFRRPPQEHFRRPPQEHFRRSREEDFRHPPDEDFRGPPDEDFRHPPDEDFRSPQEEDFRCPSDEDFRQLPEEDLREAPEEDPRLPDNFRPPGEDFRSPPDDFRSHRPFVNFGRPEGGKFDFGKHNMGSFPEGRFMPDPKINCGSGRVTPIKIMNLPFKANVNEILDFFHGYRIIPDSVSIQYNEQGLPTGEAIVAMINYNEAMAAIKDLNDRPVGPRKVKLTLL
UniProt Q9BZK7: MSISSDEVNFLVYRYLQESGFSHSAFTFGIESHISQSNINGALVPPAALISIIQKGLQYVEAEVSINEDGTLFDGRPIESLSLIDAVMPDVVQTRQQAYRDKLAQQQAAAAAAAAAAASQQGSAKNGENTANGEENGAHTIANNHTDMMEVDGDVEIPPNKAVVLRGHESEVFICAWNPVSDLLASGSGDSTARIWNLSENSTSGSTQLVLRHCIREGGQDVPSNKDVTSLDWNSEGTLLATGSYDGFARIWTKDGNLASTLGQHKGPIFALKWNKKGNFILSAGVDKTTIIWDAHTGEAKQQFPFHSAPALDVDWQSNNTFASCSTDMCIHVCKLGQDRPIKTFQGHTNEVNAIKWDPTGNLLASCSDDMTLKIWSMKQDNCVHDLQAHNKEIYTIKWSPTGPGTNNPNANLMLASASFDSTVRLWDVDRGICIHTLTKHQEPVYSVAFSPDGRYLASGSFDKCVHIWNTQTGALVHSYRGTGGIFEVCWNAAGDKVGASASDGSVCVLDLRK
UniProt P05107, whole entry: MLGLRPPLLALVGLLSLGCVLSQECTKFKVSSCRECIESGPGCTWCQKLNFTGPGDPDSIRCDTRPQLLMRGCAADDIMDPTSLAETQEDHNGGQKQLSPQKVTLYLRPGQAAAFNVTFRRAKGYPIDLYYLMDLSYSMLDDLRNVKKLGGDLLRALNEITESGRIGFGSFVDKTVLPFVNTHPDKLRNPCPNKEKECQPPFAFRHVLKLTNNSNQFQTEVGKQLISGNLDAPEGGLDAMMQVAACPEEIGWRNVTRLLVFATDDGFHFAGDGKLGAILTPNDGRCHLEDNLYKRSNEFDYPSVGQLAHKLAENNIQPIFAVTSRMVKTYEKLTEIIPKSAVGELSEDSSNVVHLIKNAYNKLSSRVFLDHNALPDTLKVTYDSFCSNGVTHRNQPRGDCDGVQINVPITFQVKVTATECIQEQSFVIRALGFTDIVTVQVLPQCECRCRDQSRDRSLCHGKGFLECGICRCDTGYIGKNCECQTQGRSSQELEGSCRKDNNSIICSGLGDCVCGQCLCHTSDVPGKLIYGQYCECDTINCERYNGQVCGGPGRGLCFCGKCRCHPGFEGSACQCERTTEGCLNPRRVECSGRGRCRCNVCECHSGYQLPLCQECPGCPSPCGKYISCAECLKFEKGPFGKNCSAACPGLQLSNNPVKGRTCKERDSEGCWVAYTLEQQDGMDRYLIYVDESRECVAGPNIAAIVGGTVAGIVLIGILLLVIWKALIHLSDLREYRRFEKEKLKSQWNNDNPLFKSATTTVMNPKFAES
UniProt Q9GZV4: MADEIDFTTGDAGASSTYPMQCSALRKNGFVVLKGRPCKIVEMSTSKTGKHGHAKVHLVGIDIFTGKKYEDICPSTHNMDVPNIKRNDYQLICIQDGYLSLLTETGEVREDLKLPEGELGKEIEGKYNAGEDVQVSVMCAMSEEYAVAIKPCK
UniProt P53801: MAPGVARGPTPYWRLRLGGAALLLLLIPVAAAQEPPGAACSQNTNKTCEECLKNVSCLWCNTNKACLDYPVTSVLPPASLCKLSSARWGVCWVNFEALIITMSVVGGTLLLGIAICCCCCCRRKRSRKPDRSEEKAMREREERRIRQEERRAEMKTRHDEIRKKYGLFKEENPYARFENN
UniProt P14406, whole entry: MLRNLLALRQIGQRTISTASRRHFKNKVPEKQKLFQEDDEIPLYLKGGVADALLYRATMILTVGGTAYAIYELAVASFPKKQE
UniProt P61916: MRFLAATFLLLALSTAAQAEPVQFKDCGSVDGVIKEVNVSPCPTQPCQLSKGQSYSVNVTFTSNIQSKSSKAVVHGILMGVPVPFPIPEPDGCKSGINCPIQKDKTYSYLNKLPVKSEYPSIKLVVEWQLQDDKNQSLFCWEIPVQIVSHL

Target | NP40-soluble protein abundance (concentration: 0.1mM) | NP40-soluble protein abundance (concentration: 0.5mM) | NP40-soluble protein abundance (concentration: 1mM) | NP40-soluble protein abundance (concentration: 2mM) | NP40-soluble protein abundance (concentration: 4mM) | NP40-soluble protein abundance (concentration: 6mM) | NP40-soluble protein abundance (concentration: 8mM) | NP40-soluble protein abundance (concentration: 10mM)
D6RCQ8 and related entries (UniProt O95394) | 0.9851 ± 0.0075 | 1.01 ± 0.035 | 0.958 ± 0.044 | 0.945 ± 0.026 | 0.936 ± 0.074 | 0.916 ± 0.025 | 0.884 ± 0.03 | 0.873 ± 0.051
C9J931 and related entries (UniProt Q15382) | 1.06 ± 0.049 | 0.983 ± 0.07 | 0.955 ± 0.063 | 0.92 ± 0.065 | 0.91 ± 0.077 | 0.912 ± 0.092 | 0.915 ± 0.059 | 0.865 ± 0.07
D6RA71 and related entries (UniProt P78317) | 0.998 ± 0.076 | 0.958 ± 0.087 | 0.951 ± 0.11 | 0.831 ± 0.069 | 0.941 ± 0.26 | 0.949 ± 0.18 | 0.881 ± 0.096 | 1.02 ± 0.14
B5MDG7 and related entries (UniProt Q9P0W2) | 0.99 ± 0.17 | 1.01 ± 0.081 | 1.17 ± 0.15 | 1.21 ± 0.075 | 1.19 ± 0.2 | 1.3 ± 0.26 | 1.29 ± 0.35 | 1.4 ± 0.48
C9J713 and related entries (UniProt Q96IZ7) | 1.01 ± 0.061 | 1.13 ± 0.087 | 1.21 ± 0.064 | 1.05 ± 0.074 | 0.968 ± 0.037 | 0.975 ± 0.059 | 1.18 ± 0.072 | 1.16 ± 0.16
B7Z6D5 and related entries (UniProt Q96GQ7) | 0.963 ± 0.084 | 0.975 ± 0.031 | 1.06 ± 0.043 | 1.06 ± 0.047 | 1.13 ± 0.052 | 1.21 ± 0.13 | 1.22 ± 0.16 | 1.42 ± 0.23
C9JZ81 and related entries (UniProt P13010) | 1.02 ± 0.029 | 1.05 ± 0.064 | 0.9641 ± 0.0045 | 0.978 ± 0.056 | 0.992 ± 0.036 | 0.961 ± 0.047 | 0.929 ± 0.024 | 0.8996 ± 0.0052
C9JFE4 and related entries (UniProt Q13098) | 0.973 ± 0.058 | 0.974 ± 0.054 | 0.988 ± 0.075 | 1.03 ± 0.095 | 1.03 ± 0.089 | 1.02 ± 0.088 | 0.94 ± 0.064 | 1 ± 0.06
B4DHN5 and related entries (UniProt O00560) | 1.01 ± 0.094 | 0.989 ± 0.084 | 0.945 ± 0.089 | 0.971 ± 0.037 | 0.929 ± 0.1 | 0.985 ± 0.044 | 0.931 ± 0.13 | 0.954 ± 0.072
C9JMN4 and related entries (UniProt Q92520) | 0.881 ± 0.059 | 0.874 ± 0.094 | 0.886 ± 0.064 | 0.861 ± 0.064 | 0.858 ± 0.076 | 0.856 ± 0.095 | 0.82 ± 0.06 | 0.891 ± 0.11
C9J381 and related entries (UniProt P20839) | 1.06 ± 0.051 | 1.16 ± 0.17 | 1.17 ± 0.2 | 1.22 ± 0.24 | 1.29 ± 0.27 | 1.2 ± 0.26 | 1.18 ± 0.27 | 1.15 ± 0.24
D6RDM7 and related entries (UniProt P61086) | 1.01 ± 0.06 | 0.986 ± 0.064 | 0.915 ± 0.05 | 0.912 ± 0.034 | 0.902 ± 0.041 | 0.899 ± 0.044 | 0.855 ± 0.054 | 0.854 ± 0.023
B9ZVT1 and related entries (UniProt Q8IXT5) | 1.02 ± 0.081 | 1.13 ± 0.19 | 1.21 ± 0.078 | 1.28 ± 0.25 | 1.29 ± 0.29 | 1.3 ± 0.32 | 1.45 ± 0.47 | 1.48 ± 0.39
B4DV51 and related entries (UniProt P62826) | 0.9924 ± 0.002 | 1 ± 0.03 | 0.934 ± 0.025 | 0.894 ± 0.05 | 0.886 ± 0.035 | 0.885 ± 0.06 | 0.879 ± 0.051 | 0.839 ± 0.081
C9JLJ1 and related entries (UniProt Q9BZK7) | 1.03 ± 0.051 | 1.07 ± 0.081 | 1.01 ± 0.061 | 1.03 ± 0.095 | 1.07 ± 0.13 | 1.05 ± 0.094 | 1.02 ± 0.083 | 1.02 ± 0.074
D3DSM0 and related entries (UniProt P05107) | 0.983 ± 0.018 | 0.961 ± 0.018 | 0.977 ± 0.034 | 0.96 ± 0.065 | 0.95 ± 0.065 | 0.956 ± 0.05 | 1 ± 0.024 | 0.989 ± 0.028
D6RD47 and related entries (UniProt P62266) | 0.983 ± 0.06 | 1.05 ± 0.074 | 1.02 ± 0.13 | 0.99 ± 0.19 | 0.859 ± 0.25 | 0.875 ± 0.24 | 0.737 ± 0.21 | 0.836 ± 0.24
C9J4W5 and related entries (UniProt Q9GZV4) | 1.03 ± 0.21 | 0.864 ± 0.12 | 0.954 ± 0.14 | 0.922 ± 0.18 | 0.875 ± 0.21 | 0.853 ± 0.17 | 0.868 ± 0.081 | 0.885 ± 0.12
SMCHD1 (UniProt A6NHR9) | 1.05 ± 0.04 | 1.06 ± 0.055 | 0.999 ± 0.029 | 1.03 ± 0.07 | 1.04 ± 0.056 | 1.04 ± 0.043 | 1.02 ± 0.051 | 1.01 ± 0.098
E5RHW4 and related entries (UniProt O94905) | 1.01 ± 0.051 | 1.1 ± 0.085 | 1.13 ± 0.12 | 1.22 ± 0.16 | 1.29 ± 0.22 | 1.3 ± 0.25 | 1.3 ± 0.29 | 1.3 ± 0.32
C9J0Q5 and related entries (UniProt Q9Y618) | 1.04 ± 0.012 | 1.007 ± 0.0023 | 1.05 ± 0.055 | 1.04 ± 0.047 | 1.06 ± 0.079 | 1.06 ± 0.044 | 1.14 ± 0.13 | 1.1 ± 0.15
B7Z863 and related entries (UniProt Q14BN4) | 1.05 ± 0.022 | 1.031 ± 0.0042 | 1.05 ± 0.025 | 1.02 ± 0.028 | 1.04 ± 0.022 | 1.03 ± 0.017 | 1.1 ± 0.095 | 1.05 ± 0.092
A8MZH8 and related entries (UniProt P53801) | 0.992 ± 0.18 | 1.05 ± 0.18 | 1.07 ± 0.15 | 1.05 ± 0.15 | 1 ± 0.19 | 1.05 ± 0.18 | 1.06 ± 0.17 | 1.07 ± 0.11
D6RGV5 and related entries (UniProt P14406) | 0.975 ± 0.14 | 0.909 ± 0.079 | 1.14 ± 0.17 | 1.14 ± 0.13 | 1.19 ± 0.11 | 1.13 ± 0.07 | 1.02 ± 0.15 | 1.21 ± 0.23
B8ZZ96 and related entries (UniProt P15882) | 0.975 ± 0.086 | 1.03 ± 0.089 | 0.934 ± 0.037 | 0.969 ± 0.14 | 0.892 ± 0.022 | 0.948 ± 0.04 | 0.884 ± 0.025 | 0.854 ± 0.097
E7EMS2 and related entries (UniProt P61916) | 0.885 ± 0.028 | 0.89 ± 0.059 | 0.945 ± 0.045 | 0.871 ± 0.076 | 0.843 ± 0.078 | 0.896 ± 0.1 | 0.87 ± 0.097 | 0.886 ± 0.05

Exported tab-delimited: part of the list above
Target	NP40-soluble protein abundance (concentration: 0.1mM)	NP40-soluble protein abundance (concentration: 0.5mM)	NP40-soluble protein abundance (concentration: 1mM)	NP40-soluble protein abundance (concentration: 2mM)	NP40-soluble protein abundance (concentration: 4mM)	NP40-soluble protein abundance (concentration: 6mM)	NP40-soluble protein abundance (concentration: 8mM)	NP40-soluble protein abundance (concentration: 10mM)
B4DHN5 and related entries (UniProt O00560)	1.01 ± 0.094	0.989 ± 0.084	0.945 ± 0.089	0.971 ± 0.037	0.929 ± 0.1	0.985 ± 0.044	0.931 ± 0.13	0.954 ± 0.072
D6RGV5 and related entries (UniProt P14406)	0.975 ± 0.14	0.909 ± 0.079	1.14 ± 0.17	1.14 ± 0.13	1.19 ± 0.11	1.13 ± 0.07	1.02 ± 0.15	1.21 ± 0.23
